US10501412B2 (HANGZHOU DAC BIOTECH CO., LTD., priority 2012, dated 2019)

Assays:
peptide synthesis = settings: coupling step
[1] = general procedure: peptide synthesis; Boc SPPS: Merrifield, modified PAM or MBHA resin; Fmoc SPPS: Wang, 2-chlorotrityl, HMPB or MBHA resin; TBTU or PyBrOP, DIPEA; settings: late stage modification step

## (4R)-4-(2-((1R,3R)-1-acetoxy-3-((2S,3S)—N,3-dimethyl-2-((R)-1-methylpiperidine-2-carboxamido)pentanamido)-4-methylpentyl)thiazole-4-carboxamido)-2-methyl-5-(4-(phosphonooxy)-3-(4-(pyridin-2-yldisulfanyl)butanamido)phenyl)pentanoic Acid
Peptide synthesis
  step yield: 71%

## (4R)-4-(2-((1R,3R)-1-acetoxy-3-((2S,3S)—N,3-dimethyl-2-((R)-1-methylpiperidine-2-carboxamido)pentanamido)-4-methylpentyl)thiazole-4-carboxamido)-5-(3-(3-(2-(2-(2-(2,5-dioxo-2,5-dihydro-1H-pyrrol-1-yl)ethoxy)ethoxy)ethoxy)-propanamido)-4-(phosphonooxy)phenyl)-2-methylpentanoic Acid
Peptide synthesis
  step yield: 76%

## (4R)-4-(2-((1R,3R)-1-acetoxy-3-((2S,3S)—N,3-dimethyl-2-((R)-1-methylpiperidine-2-carboxamido)pentanamido)-4-methylpentyl)thiazole-4-carboxamido)-5-(3-(4-mercaptobutanamido)-4-(phosphonooxy)phenyl)-2-methylpentanoic Acid
[1]
  step yield: 85%
